Source: paper PMC3614988
Read-outs that look alike come from different tables or passages of the source. No constants are given. Whether binding was seen depends on the method and setting. In cells and extracts the contact can be indirect. Some results given as binding are weak or reduced against the parent protein; the word gives no strength.

Sequences of proteins named here, by UniProt entry; tags and fusion partners are left off.
UniProt F1M3L7: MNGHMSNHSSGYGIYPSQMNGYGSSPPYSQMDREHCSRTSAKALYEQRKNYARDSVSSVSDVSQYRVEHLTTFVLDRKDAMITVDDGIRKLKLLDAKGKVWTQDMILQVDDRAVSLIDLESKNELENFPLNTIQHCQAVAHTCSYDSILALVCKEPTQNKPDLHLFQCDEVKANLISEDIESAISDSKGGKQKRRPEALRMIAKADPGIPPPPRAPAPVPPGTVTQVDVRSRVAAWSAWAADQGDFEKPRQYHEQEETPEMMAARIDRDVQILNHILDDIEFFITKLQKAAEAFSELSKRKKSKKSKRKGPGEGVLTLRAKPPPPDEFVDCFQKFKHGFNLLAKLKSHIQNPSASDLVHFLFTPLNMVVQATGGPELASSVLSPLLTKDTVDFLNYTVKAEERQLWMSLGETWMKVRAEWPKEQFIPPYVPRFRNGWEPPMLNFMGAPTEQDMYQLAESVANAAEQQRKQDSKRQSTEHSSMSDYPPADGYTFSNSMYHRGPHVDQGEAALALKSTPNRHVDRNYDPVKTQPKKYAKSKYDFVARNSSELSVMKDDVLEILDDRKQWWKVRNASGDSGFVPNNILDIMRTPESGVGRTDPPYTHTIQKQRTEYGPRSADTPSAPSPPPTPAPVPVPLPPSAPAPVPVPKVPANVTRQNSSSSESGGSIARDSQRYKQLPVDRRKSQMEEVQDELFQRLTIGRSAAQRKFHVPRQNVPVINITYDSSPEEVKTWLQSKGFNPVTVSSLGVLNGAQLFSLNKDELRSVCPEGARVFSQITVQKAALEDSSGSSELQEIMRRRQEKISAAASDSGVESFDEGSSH
UniProt P31000: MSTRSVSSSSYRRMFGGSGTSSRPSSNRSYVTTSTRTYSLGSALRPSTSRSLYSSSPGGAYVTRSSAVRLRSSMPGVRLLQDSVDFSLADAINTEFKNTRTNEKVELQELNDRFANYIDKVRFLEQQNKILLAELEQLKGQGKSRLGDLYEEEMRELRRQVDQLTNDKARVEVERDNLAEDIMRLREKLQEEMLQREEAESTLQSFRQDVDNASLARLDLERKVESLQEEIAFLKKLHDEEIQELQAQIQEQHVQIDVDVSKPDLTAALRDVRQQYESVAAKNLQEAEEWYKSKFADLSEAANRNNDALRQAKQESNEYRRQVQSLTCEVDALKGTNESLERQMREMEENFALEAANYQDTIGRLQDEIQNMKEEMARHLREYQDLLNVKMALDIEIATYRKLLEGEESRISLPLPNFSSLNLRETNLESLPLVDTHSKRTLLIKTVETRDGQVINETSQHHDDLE

Assays:
[1] = molecular target: T1, Rai14 (retinoic acid induced protein 14) (rat (endogenous in testis)) (UniProt Q5U312); assay: co-IP; anti-Rai14 IgG (2 µg) as precipitating antibody, immunoblot for the partner; rat testis lysate (for Figure 1D the lysate is not named in the legend); untreated rats
T1 sequence: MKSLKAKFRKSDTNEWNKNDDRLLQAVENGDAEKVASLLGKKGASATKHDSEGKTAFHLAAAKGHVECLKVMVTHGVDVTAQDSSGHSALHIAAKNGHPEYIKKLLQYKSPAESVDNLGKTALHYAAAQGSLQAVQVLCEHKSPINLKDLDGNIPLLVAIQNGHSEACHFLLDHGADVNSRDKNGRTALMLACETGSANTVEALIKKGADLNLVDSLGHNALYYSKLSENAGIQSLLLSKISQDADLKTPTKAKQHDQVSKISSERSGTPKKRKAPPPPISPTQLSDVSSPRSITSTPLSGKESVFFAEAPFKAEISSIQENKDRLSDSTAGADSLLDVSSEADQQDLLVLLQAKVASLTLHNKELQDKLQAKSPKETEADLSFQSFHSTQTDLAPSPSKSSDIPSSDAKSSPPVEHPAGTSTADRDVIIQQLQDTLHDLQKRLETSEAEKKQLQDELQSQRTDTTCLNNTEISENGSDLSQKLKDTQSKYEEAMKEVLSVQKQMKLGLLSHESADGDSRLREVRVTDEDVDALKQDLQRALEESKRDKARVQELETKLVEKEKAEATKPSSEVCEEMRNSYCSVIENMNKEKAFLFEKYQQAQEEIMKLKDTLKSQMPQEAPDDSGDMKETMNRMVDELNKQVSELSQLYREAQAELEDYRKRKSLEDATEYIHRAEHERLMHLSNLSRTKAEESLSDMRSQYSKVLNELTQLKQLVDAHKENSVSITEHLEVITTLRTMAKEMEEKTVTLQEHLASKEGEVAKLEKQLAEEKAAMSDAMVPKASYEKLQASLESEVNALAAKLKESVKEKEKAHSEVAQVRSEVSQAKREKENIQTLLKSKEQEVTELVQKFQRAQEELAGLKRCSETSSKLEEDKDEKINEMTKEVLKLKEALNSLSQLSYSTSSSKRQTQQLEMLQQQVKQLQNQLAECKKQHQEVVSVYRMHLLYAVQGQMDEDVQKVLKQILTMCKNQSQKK

[2] = molecular target: T1, Rai14 (retinoic acid induced protein 14) (rat (endogenous in testis)); assay: as above; remark: listed apart in the source

Eps8 (epidermal growth factor receptor pathway substrate 8) (from UniProt F1M3L7 1-822)
binding [1]: no binding

vimentin (from UniProt P31000 1-466)
binding [1]: no binding

B1: palladin (protein, UniProt P0C5E3 1-603)
chain: PEEICTLVIAESFPEDAGIFTCSARNDYGSVTSTAQLVVTSANTENCSYDSMGEPNSDHFQHFPPPPPILETGSYELASQKPSEIQQVNTPNLGFNMAALQMQFNSAERETNGVHPSHGVNGLINGKAYGNKSPPTPAALLSPTKEPPPLLAKPKLGFPKKASRTARIASDEEIQGTKDAVIQDLERKLRFKEDLLNNGQPRLTYEERMARRLLGADSANVFNIQEPEETAANQEYKVSSCEQRLISEIEYRLERSPVEESGDEVQEAEVPVENAAAPFFEMKLKHYKIFEGMPVTFTCRVAGSPKPKIYWFKDGKQISPKSDHYTIQRDVDGTCSLHTTASTLDDDGNYTIMAANTQGRVSCTGRLMVQAVNQRGRSPRSPPGHPHARRPRSRSRDSGDENEPIQERFFRPHFLQAPGDLTVQEGKLCRMDCKVSGLPTPDLSWQLDGKPIRPDSAHKMLVRENGVHSLIIEPVTSRDAGIYTCIATNRAGQNSFNLELVVAAKEAHKAPVFIEKLQNTGVADGYPVRLECRVSGVPPPQIFWKKENESLTHSTDRVSMHQDNHGYICLLIQGATKEDAGWYTVSAKNEAGIVSCTARLDVY
binding [2]: binds
